# Reference: the supplement of paper PMC3334620
# Over roughly 33,000 sequences, “E-score (-0.5 to 0.5)” has its median near -0.0034; the highest 2% begin near 0.25. Some of the results follow.
# Molecular target: T1, Yap3 (UniProt P38749)
# T1 sequence: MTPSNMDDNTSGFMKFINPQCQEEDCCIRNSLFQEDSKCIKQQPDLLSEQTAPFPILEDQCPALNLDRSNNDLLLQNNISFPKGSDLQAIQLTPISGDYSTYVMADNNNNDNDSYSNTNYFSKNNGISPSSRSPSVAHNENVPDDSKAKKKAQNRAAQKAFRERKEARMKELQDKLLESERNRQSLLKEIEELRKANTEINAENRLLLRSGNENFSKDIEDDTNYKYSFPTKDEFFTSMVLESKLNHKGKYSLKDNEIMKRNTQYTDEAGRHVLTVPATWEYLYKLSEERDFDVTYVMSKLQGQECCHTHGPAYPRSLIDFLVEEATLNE
# Test: PBM E-score (8-mer binding enrichment) (E-score (-0.5 to 0.5)); higher = stronger / more preferred TF binding
# Conditions: protein concentration: 100 nM; construct: GST-full length
# Procedure, shortened: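 GST-tagged yeast TFs (full-length or DNA-binding domain) were made by PURExpress in vitro transcription/translation and applied at about 100-200 nM to universal all-10-mer Agilent arrays. The arrays were made double-stranded by primer extension, on fresh or once-stripped slides. Bound protein was detected with fluorescent anti-GST, and scans were normalised with masliner. Each ungapped eight-base word, pooled with its reverse complement, received an E-score (modified Wilcoxon-Mann-Whitney statistic) from the Universal PBM Analysis Suite.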
row,Sequence,PBM E-score
1,AAATCCCA,0.0952
2,CCGGGTCC,-0.296
3,TAATACAA,0.279
4,GATTATTA,0.198
5,AATTTAGA,0.0678
6,AAGATTAT,0.176
7,TCCCTTAA,-0.0761
8,TTCTACAA,0.0955
9,GTTGCAGA,-0.0248
10,CTCGTTCA,0.0386
11,ATAAGCCG,0.129
12,CTTAAATC,0.151
13,TCAAGTAA,0.124
14,GCGTTCAA,-0.137
15,ACCAGACT,0.016
16,ACAATTAT,0.248
17,ATTTGTGG,0.114
18,ACGAAGTG,-0.0423
19,ATCCCAGG,-0.174
20,CCAGTTAC,-0.145
21,TGGCAAAA,0.104
22,CCTAAAAA,0.031
23,ACCGCACG,-0.124
24,ACTCGCAC,-0.0984
25,ATATAGTG,0.223

row,Sequence,PBM E-score
1,AGTCCGTA,-0.00747
2,GAAGAGCC,-0.0754
3,CCCCTATC,-0.207
4,AGGTCATC,0.0147
5,GCCCCAAC,0.0983
6,GTTCACTA,0.0227
7,CAATTGCG,-0.0461
8,CCCGTCGG,-0.171
9,AATGTTCC,0.0225
10,AAGAGGTC,-0.0859
11,GCCGTTAA,0.0915
12,ACAGCCTA,0.193
13,ATCAACTG,0.0953
14,CAGGAGAC,-0.0362
15,GCATCCTA,-0.018
16,ACATAGCG,-0.091
17,CTTTGCAC,0.0895
18,AAACGATG,0.0224
19,TAGCTGCA,-0.236
20,ATATGGGC,0.097
21,ACAACGGT,-0.0271
22,ACACGGTA,0.0254
23,AAAGAGAT,-0.0227
24,TACAGATA,0.0119
25,AATCCTGC,0.0275

# Shown tab-delimited: part of the list above.
row	Sequence	PBM E-score
19	TAGCTGCA	-0.236
20	ATATGGGC	0.097
21	ACAACGGT	-0.0271
22	ACACGGTA	0.0254
23	AAAGAGAT	-0.0227

# Additional results

row,Sequence,PBM E-score
1,CCACCGAC,-0.127
2,CCACGCAA,-0.0495
3,CAAGAGCA,-0.0338
4,ATCCACCA,0.118
5,CTTGCTTA,0.0338
6,ACGCGCAC,-0.015
7,GAAGAGCA,-0.258
8,AACACATA,0.138
9,GTGCCTGA,-0.274
10,TCAACAAA,0.099
11,TACACCGA,-0.104
12,ATATGCCA,0.0749
13,AACCCGGT,-0.157
14,GAAAAGGC,-0.0242
15,AATTGGGG,-0.023
16,AGGCAGCC,-0.0602
17,AAAACGGG,0.207
18,CGCCTCCC,-0.256
19,GAAGCTCA,-0.114
20,TCGGCTAA,0.0362
21,AGACGGTA,0.127
22,TAGTTGGA,0.0793
23,AGAATGAA,0.147
24,CACCCAGC,-0.244
25,ACTCGAGT,0.219

row,Sequence,PBM E-score
1,GCTCAGAC,-0.0895
2,AACCCGTT,-0.113
3,AGAAGCGG,-0.0828
4,CCGTGGGC,-0.183
5,AGCCAGTC,-0.151
6,AGACTGCC,-0.0226
7,CACCACCG,-0.394
8,ACTAAGCT,0.0783
9,AGTTTGAG,-0.117
10,AGTATGAA,0.252
11,CAGAGGGC,-0.153
12,ACTACAGG,0.161
13,CTACCAGC,-0.158
14,ATGACGAA,0.0999
15,ACTCGGAC,0.0349
16,GAGGGTGA,-0.177
17,AACCCGGG,-0.215
18,AAGTACGG,-0.0366
19,TAGCTAGA,0.184
20,CTATGAGC,-0.161
21,CATAGTAG,0.148
22,AAGTCCCC,-0.243
23,ATTGTAAG,-0.0137
24,CAATGCTC,-0.0558
25,CAAACTTG,-0.0705

row,Sequence,PBM E-score
1,CACGACTC,0.036
2,GAACAACC,0.143
3,CGGCACCG,-0.109
4,AATGCCGC,0.112
5,ATAGGGGA,-0.0709
6,GGCCGTGA,-0.0401
7,GCAGTCGC,-0.14
8,AGGTACCC,-0.142
9,CATCCAAC,0.0736
10,CTTATAGC,0.0434
11,ATGAGGCA,-0.0878
12,GACGTTGC,-0.0109
13,ATATCATA,0.271
14,ATATGCGC,0.0899
15,CTAAGCCC,-0.174
16,GATGTCGA,-0.034
17,CTGCCCTA,-0.132
18,AAGAATGG,-0.0369
19,CGATCGTA,0.126
20,AGTTTGCG,0.11
21,AATATTTC,0.154
22,TAGGAGCA,-0.176
23,AACTGGCG,0.0298
24,CGAGGGAC,-0.198
25,AAGGTAAT,0.139

# Reprinted at random: 4 entries already listed.
row,Sequence,PBM E-score
8,CCCGTCGG,-0.171
20,ATATGGGC,0.097
21,CATAGTAG,0.148
4,AGGTCATC,0.0147

# The results go on.

row,Sequence,PBM E-score
1,CTACCTAG,-0.0731
2,AAAAGTCG,0.0637
3,ACGGAATC,-0.00809
4,GATTCTAC,-0.0393
5,GTGATTAA,0.166
6,GCACGACA,-0.127
7,TCGAGAGA,-0.207
8,CGAACTCA,-0.124
9,GCAGCCAC,-0.12
10,CCCGGTTA,-0.309
11,ACCCTGTG,-0.044
12,ATACTCCA,0.063
13,AACTCCAT,-0.0459
14,AAACGCGT,-0.032
15,GCGGTTCC,-0.0658
16,CAATCTCA,0.0896
17,CGGCCGCA,-0.0862
18,AAACCAGT,-0.0425
19,AATTGATA,0.19
20,CTTCCTCA,-0.0697
21,ATGACACA,0.24
22,AGCGGGAA,0.0988
23,ATGATCGC,0.0319
24,CCCCTCTC,-0.306
25,CATGGCCA,-0.25

row,Sequence,PBM E-score
1,GATTAGGC,0.125
2,ACGATTAC,0.127
3,CCAGAGCA,0.0489
4,CCTTAACC,-0.248
5,AATTGACG,0.136
6,CGGATACA,0.131
7,GTTACGCA,0.0313
8,CCGCATCA,-0.0944
9,CAGTGGAA,-0.111
10,AGATCCTG,-0.163
11,CAGTACCA,-0.0169
12,CATGGGCG,-0.062
13,GGACGAGA,-0.05
14,CTAAGGTC,-0.0277
15,ATACGCTG,0.117
16,TCCTATCA,-0.00883
17,ATTCTATA,0.153
18,CTCGTTCC,-0.0635
19,GGTAGCGA,0.0404
20,ACAAAATG,0.215
21,CTACAAGC,-0.0331
22,CAGTTAGA,-0.0207
23,CGAGACCA,-0.0599
24,CGTCACAA,-0.00013
25,ATCATGTA,0.152

row,Sequence,PBM E-score
1,GATACCGC,0.0673
2,ATTCGTAA,0.292
3,GCAAGCAC,-0.222
4,TATACACA,0.134
5,ATGTCATG,0.108
6,GCCTGAGA,-0.208
7,AAGAACTC,0.0687
8,CCAAGTCG,-0.0405
9,AATTATGA,0.278
10,GCAGATAA,-0.0214
11,TCCACAGA,0.083
12,GAACTCCA,-0.0465
13,CGAACTGA,-0.0309
14,CGCCACTA,-0.0394
15,CGGAGACG,0.0722
16,ATCGTGCG,0.238
17,CGCCTAAG,-0.162
18,GACCCTCA,-0.348
19,GTATAAGA,0.0832
20,AATGCTGA,-0.00858
21,GCCGCTGA,-0.057
22,TGCCCGCA,0.0531
23,CGAAGTCC,-0.171
24,ATATACGC,0.0422
25,AGCTTACG,0.149

# An excerpt of these results, bar-delimited.
row | Sequence | PBM E-score
24 | CGTCACAA | -0.00013
25 | ATCATGTA | 0.152
1 | GATACCGC | 0.0673

# (continued)

row,Sequence,PBM E-score
1,GAGACAGC,-0.0108
2,CCCACCTC,-0.148
3,GGTGTCAC,-0.0636
4,CTACTGAC,-0.083
5,ATACCGGG,0.0138
6,AGTGCTGG,-0.082
7,GCCAGACA,0.0706
8,CGGGAAGA,0.144
9,ATGTTATC,0.206
10,ACAAACTG,-0.0673
11,AGGCGAGG,-0.212
12,GAGCTATA,0.00431
13,CGCCTCCG,-0.245
14,AGTTATCA,0.00581
15,ATTCTCTG,-0.049
16,ACCCGAGC,-0.0717
17,TGTATCAA,0.174
18,AGAACTAT,0.158
19,ATTGGCAC,-0.0204
